At least one peptide structure holds a part that was inferred or is arguable (an end, a ring closure or a residue). Peptide text beside a SMILES is read from it. * marks the point of attachment. Palmitoyl = CCCCCCCCCCCCCCCC(=O)*
Test system: mesenchymal stem cells
Assay: Mesenchymal stem cells cultured in PA gels with BMP-2, lineage markers by western blot
Type: cell-based, Human

CCCCCCCCCCCCCCCC(=O)N[C@H](C(=O)N[C@H](C(=O)N[C@H](C(=O)N[C@@H](C)C(=O)N[C@@H](C)C(=O)N[C@@H](C)C(=O)N[C@@H](CCC(=O)O)C(=O)N[C@@H](CCC(=O)O)C(=O)N[C@@H](CCC(=O)O)C(=O)O)C(C)C)C(C)C)C(C)C [PA 2] (Palmitoyl-VVVAAAEEE-OH)
α-smooth muscle actin expression (after 3 weeks): expressed | α-smooth muscle actin expression (first time point (7 days)): expressed
